# Reference: patent publication US20240368668A1, “SUBSTRATES AND BIOMARKERS OF ADAMTS7” (The Broad Institute, Inc., priority 2021, published 2024)
# Assays:
# mouse ADAMTS7 [1] = assay: TMT10 TAILS N-terminomics, SMC2 experiment (process replicates, trypsin/AspN digest); assay type: cell-based; conditions: total intensity of the N-terminal peptide spectra, SMC rd2 TAILS fractions, AspN/GluC search
# Description: (§1) ADAMTS7 Expression, Cell Culture and Preparation of the Secreted Proteins—Full-length mouse Adamts7 1-1857 (Uniprot Q68SA9, WT or E373Q catalytic mutant) with a carboxyl terminal 3xFLAG tag was used to generate custom adenoviruses as previously described. Adeno-CMV-Luciferase (Ad-Luc) from Vector Biolabs was used as a negative control. Human Coronary Artery Smooth Muscle Cells (HCA-SMC) were obtained from Lonza and expanded in Lonza SmGM-2 media in 15 cm tissue culture plates. Twenty-four hours before media collection, near confluent plates were transduced with 50 MOI adenovirus and switched to Lonza Basal SM media with volumes of 20 ml per 15 cm plate. Expression of the Flag tagged ADAMTS7 was confirmed from the media using western blot and detected using the anti-Flag M2-HRP antibody (Sigma, A8592). Collected media was processed by adding protease inhibitors (1 mM EDTA and 1 mM PMSF) and clarified by 500 g×5 min spin at 4 C to pellet cell debris. Cell media supernatants were then passed through a 0.22 um filter and kept chilled. Processed media was then concentrated 50-100× using 3 kDa Centricon Plus-70 filter unit, spun at 3,500 g×60 min at 4 C. Approximately 10% of the processed, concentrated media was set aside for total secretome proteolytic analysis. The remaining 90% of the processed, concentrated media was buffer exchanged into 50 mM HEPES pH 8.0, 150 mM NaCl (2×50 ml) using the 3 kDa Centricon Plus-70 filter unit and concentrated to >2 mg/ml to serve as input for the TAILS experiment. Secretome and TAILS input samples were stored at −80° C.
# (§2) For the first experiment, referred to as SMC1, 120 ml of media from 6×15 cm dishes was pooled from each condition (Luc, WT, EQ) and processed to produce three separate inputs for the TAILS experiment. Luc, WT and EQ inputs from the SMC1 experiment were each divided into triplicate 400 ug samples to generate technical replicate TAILS data. For the second experiment, referred to as SMC2, media was processed separately in triplicate for each condition (Luc1, Luc2, Luc3, WT1, WT2, WT3, EQ1, EQ2, EQ3) using 60 ml of media from 3×15 cm dishes for each process replicate. Inputs from the SMC2 experiment used process replicates of 300 ug each to generate TAILS data. The third experiment used input from cultured Human umbilical vein endothelial cells (HUVEC) from Lifeline Cell Technology grown in VascuLife Media and transduced in Lifeline Basal EC (+bFGF2 10 ng/ml). The HUVEC experiment used the same strategy as the SMC2 experiment, with 40 ml of media from 2×15 cm dishes for each process replicate and used 200 ug each to generate TAILS data. Inputs for process replicate experiments were restricted to the lowest concentration from the 9 parallel samples for SMC2 or HUVEC.
# (§3) TMT10 isotopic labeling and negative selection of non-labeled peptides-Sample preparation was performed based on the TAILS protocol from the Overall lab with some modifications. From a single experiment, nine parallel protein samples in 50 mM HEPES pH 8.0, 150 mM NaCl were separately denatured with guanidinium chloride (Sigma, G4505) to reach a final concentration of 2.5M guanidinium chloride and 250 mM HEPES and incubated at 65° C. for 15 min. Reduction was achieved through addition of tris(2-carboxylethyl) phosphine (TCEP) at a final concentration of […] and incubated at 65° C. for 45 min. Alkylation reaction was performed with addition of iodoacetamide (IAA, Sigma, A3221) to a final concentration of 10 mM IAA for 15 min at room temperature in the dark. Following denaturation, reduction and alkylation steps, ten percent of each of the nine parallel protein samples was removed and combined to serve as a pooled reference. Isobaric tags were added to free amine groups using the TMT10plex Isobaric Mass Tagging Kit (ThermoFisher, 90113) with TMT channels randomly assigned to the nine samples and TMT 131 assigned to the pooled reference. […]
# mouse ADAMTS7 [2] = assay: TMT10 TAILS N-terminomics, SMC1 experiment (Ad-mADAMTS7 WT vs EQ vs Luc, technical replicates, trypsin digest); assay type: cell-based
# Description: as §1, §2, §3
# [3] = TAILS N-terminal peptide identified in SMC conditioned media (scale-up, fractions), mouse ADAMTS7, value listed per TAILS_id (protein_StartAA)
# [4] = intensity of the N-terminal (TAILS) peptide in SMC scale-up TAILS experiment, fractions, peptide identified by TAILS_id (gene symbol_StartAA)
Substance,TAILS_SMC_Scaleup_fxns_mATS7i (mouse ADAMTS7 [2]; [3]),TAILS_SMC_Scaleup_fxns_mATS7i (mouse ADAMTS7 [2]; [4]),also measured
ACTG1_105 (LTEAPLNPKANR; listed as Homo sapiens),,,ATS7_SMC_rd2_TAILS_frxns_matS7inDB_AspGluN_retry.totalIntensity (mouse ADAMTS7 [1]): 1.52E+08
ACTN4_5 (HAANQSYQYGPSSAGNGAGGGGSMG; listed as Homo sapiens),,,ATS7_SMC_rd2_TAILS_frxns_matS7inDB_AspGluN_retry.totalIntensity (mouse ADAMTS7 [1]): 2.33E+08
ADAM9_74 (GKEHIIHLER; listed as Homo sapiens),,,ATS7_SMC_rd2_TAILS_frxns_matS7inDB_AspGluN_retry.totalIntensity (mouse ADAMTS7 [1]): 3.07E+08
ADAM10_86 (FKVETSNKVL; listed as Homo sapiens),,,ATS7_SMC_rd2_TAILS_frxns_matS7inDB_AspGluN_retry.totalIntensity (mouse ADAMTS7 [1]): 1.44E+07
ADNP2_375 (SQPVGPVNK; listed as Homo sapiens),,,ATS7_SMC_rd2_TAILS_frxns_matS7inDB_AspGluN_retry.totalIntensity (mouse ADAMTS7 [1]): 4.60E+09
AMER2_654 (LAGTTIRATACH; listed as Homo sapiens),,,ATS7_SMC_rd2_TAILS_frxns_matS7inDB_AspGluN_retry.totalIntensity (mouse ADAMTS7 [1]): 2.57E+08
APLP2_452 (LVETHLAR; listed as Homo sapiens),,,ATS7_SMC_rd2_TAILS_frxns_matS7inDB_AspGluN_retry.totalIntensity (mouse ADAMTS7 [1]): 6.72E+08
APOA1_86 (EQLGPVTQEFW; listed as Homo sapiens),,,ATS7_SMC_rd2_TAILS_frxns_matS7inDB_AspGluN_retry.totalIntensity (mouse ADAMTS7 [1]): 1.76E+09
BMPER_43 (LTGSVAKCENEG; listed as Homo sapiens),,,ATS7_SMC_rd2_TAILS_frxns_matS7inDB_AspGluN_retry.totalIntensity (mouse ADAMTS7 [1]): 1.92E+09
CALU_176 (FTAFLHPEEY; listed as Homo sapiens),,,ATS7_SMC_rd2_TAILS_frxns_matS7inDB_AspGluN_retry.totalIntensity (mouse ADAMTS7 [1]): 1.25E+09
CAP1_300 (FSAPKPQTSPSPKR; listed as Homo sapiens),,,ATS7_SMC_rd2_TAILS_frxns_matS7inDB_AspGluN_retry.totalIntensity (mouse ADAMTS7 [1]): 4.47E+08
CCL2_28 (INAPVTCCYNFTNR; listed as Homo sapiens),,,ATS7_SMC_rd2_TAILS_frxns_matS7inDB_AspGluN_retry.totalIntensity (mouse ADAMTS7 [1]): 3.12E+08
CEP192_728 (DKSTAGR; listed as Homo sapiens),,,ATS7_SMC_rd2_TAILS_frxns_matS7inDB_AspGluN_retry.totalIntensity (mouse ADAMTS7 [1]): 1.43E+09
LTBP2_1584 (SSEVYAQLCNVAR; listed as Homo sapiens),3.60E+09,,
LTBP2_1602 (EAGVHFR; listed as Homo sapiens),4.66E+08,,
MAN2A1_51 (LQEKIDHLER; listed as Homo sapiens),7.24E+07,,
MAP1B_1065 (LTTPTKQLGAQSPGR; listed as Homo sapiens),1.61E+07,,
MGAT4B_28 (LSGQKGDVVDVYQR; listed as Homo sapiens),3.91E+07,,
MMP1_24 (LETQEQDVDLVQKYLEKYYNLKNDGR; deamidated asparagine; listed as Homo sapiens),7.27E+07,,
NID2_374 (VGGPDLKGQVEPWDER; listed as Homo sapiens),1.18E+08,,
NID2_467 (LEDNIGSNTEVFTYNAANKETCEHNHR; listed as Homo sapiens),1.69E+08,,

Substance,TAILS_SMC_Scaleup_fxns_mATS7i (mouse ADAMTS7 [2]; [3]),TAILS_SMC_Scaleup_fxns_mATS7i (mouse ADAMTS7 [2]; [4]),also measured
NUCB1_228 (LKEVWEELDGLDPNR; listed as Homo sapiens),1.30E+08,,
OS9_54 (QSQSSDVVIVSSKYKQR; modified N-terminal Gln; listed as Homo sapiens),1.17E+09,,
OS9_55 (SQSSDVVIVSSKYKQR; listed as Homo sapiens),3.03E+08,,
PAPPA_41 (AAGPATCATR; listed as Homo sapiens),5.38E+07,,
PDLIM4_104 (IDPEIQDGSPTTSR; listed as Homo sapiens),2.81E+07,,
POLR3G_88 (LFCSHWSHIPGFK; listed as Homo sapiens),7.00E+07,,
POSTN_413 (FSDDTLSMDQR; listed as Homo sapiens),1.35E+08,,
POSTN_754 (IITGPEIKYTR; listed as Homo sapiens),2.17E+09,,
POSTN_790 (FIEGGDGHLFEDEEIKR; listed as Homo sapiens),1.69E+08,,
POSTN_807 (LLQGDTPVR; listed as Homo sapiens),3.08E+08,,
PSAP_171 (FMANIPLLLYPQDGPR; oxidized Met; listed as Homo sapiens),1.43E+08,,
PXDN_1341 (SYQEDKPTKKTR; listed as Homo sapiens),1.16E+09,,
PXDN_1393 (QKTITDLR; listed as Homo sapiens),8.16E+07,,
QSOX1_558 (VAAAPELAMGALELESR; listed as Homo sapiens),8.63E+08,,
SDC4_106 (LEENEVIPKR; listed as Homo sapiens),1.76E+08,,
SERPINH127 (AAAPGTAEKLSPKAATLAER; listed as Homo sapiens),,1.82E+08,
SMOC1_35 (LISDRDPQCNLHCSR; listed as Homo sapiens),,9.50E+07,
SPOCK1_126 (HWVGPSNLVK; listed as Homo sapiens),,8.43E+07,
SRGN_50 (LEEKGPMFELLPGESNKIPR; listed as Homo sapiens),,1.42E+09,
SRGN_51 (EEKGPMFELLPGESNKIPR; listed as Homo sapiens),,3.45E+07,
SRGN_60 (LPGESNKIPR; listed as Homo sapiens),,2.92E+07,

Substance,TAILS_SMC_Scaleup_fxns_mATS7i (mouse ADAMTS7 [2]; [3]),TAILS_SMC_Scaleup_fxns_mATS7i (mouse ADAMTS7 [2]; [4]),also measured
SRGN_62 (GESNKIPR; listed as Homo sapiens),,3.99E+08,
STC1_37 (QNSAEVVR; listed as Homo sapiens),,1.51E+08,
STC2_239 (HGEAGHHLPEPSSR; listed as Homo sapiens),,9.79E+07,
STC2_244 (HHLPEPSSR; listed as Homo sapiens),,1.06E+09,
TGFBI_24 (GPAKSPYQLVLQHSR; listed as Homo sapiens),,6.17E+10,
TGFBI_43 (QHGPNVCAVQKVIGTNR; listed as Homo sapiens),,3.19E+10,
TGFBI_50 (AVQKVIGTNR; listed as Homo sapiens),,5.27E+08,
TGFBI_208 (GIVTVNCAR; listed as Homo sapiens),,2.03E+08,
TGFBI_276 (TLLAPTNEAFEKIPSETLNR; listed as Homo sapiens),,2.25E+08,
TGFBI_497 (VLTPPMGTVMDVLKGDNR; listed as Homo sapiens),,3.45E+08,
TGFBI_524 (SAGLTETLNR; listed as Homo sapiens),,7.48E+07,
TGFBI_534 (EGVYTVFAPTNEAFR; listed as Homo sapiens),,6.29E+09,
TG_1017 (GASALLR; listed as Homo sapiens),,1.85E+08,
THBS1_972 (QNDPNWVVR; listed as Homo sapiens),,3.65E+08,
TLN1_1501 (HTSALCNSCR; listed as Homo sapiens),,6.47E+06,
TMEM132A52 (LLDAPEHFR; listed as Homo sapiens),,1.07E+07,
VASN_138 (HIQPGAFDTLDR; listed as Homo sapiens),,4.88E+07,
VASP_229 (AIAGAKLR; listed as Homo sapiens),,3.14E+07,
VIM_433 (LVDTHSKR; listed as Homo sapiens),,1.81E+08,
